The source of these data is PubChem BioAssay AID2685 (National Center for Advancing Translational Sciences (NCATS), 2010).

One may read the AC50 as the concentration at which the activity in the assay is half-maximal. A higher AC50 goes with weaker potency.

A short description of the test: qHTS Assay for Lipid Storage Modulators in Drosophila S3 Cells.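 For cell number change: cells counted by Cell Tracker Red CMTPX staining in the red channel.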 As to conditions: BODIPY lipid droplet fluorescence, 18-24 h; for cell number change: measured here: cell count max response, cells fed with added oleic acid. In outline:
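Laser-scanning cytometry quantifies lipid droplet accumulation (500–530 nm total intensity; droplet/cell object ratio) in oleic acid-fed (400 uM added) Drosophila S3 cells treated with a concentration series. 20 uM Triacsin C defined 100% inhibition.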
(In general: Quantitative high-throughput screening tests each substance at several concentrations.)

The mark [1] stands for this setting: measured here: lipid fluorescence (Fed channel) AC50, cells fed with added oleic acid.
Where [2] appears, read: measured here: cell number channel AC50, cells fed with added oleic acid.

The other results are listed elsewhere or left out. Shown are side measurements of this screen, not its main read-out; they come without a call. Compounds called inactive in the main read-out are mostly missing here. Potencies come from curve fits of mixed quality, noted in brackets.

In the case of `CC(=O)c1ccc(NC(=O)c2sc3nc4n(c(=O)c3c2C)CCCCC4)cc1`, under setting [1], the AC50 was 29.1 µM [falling, single point].
Consider `O=C(Cc1c[nH]c2ccccc12)NCc1ccc(Cl)cc1`, for which the cell number change was -39.3%. In addition, the concentration at half-maximal activity (AC50) under setting [2] is 0.92 µM [falling, full curve]. Moreover, the half-maximal activity concentration (AC50) under setting [1] is 3.66 µM [falling, full curve].
Regarding `O=C(Cn1ccc([N+](=O)[O-])n1)N1CCCCCC1`, the cell number change is -22.3%.
As to `COc1ccc(NC(=O)c2sc3nc(C)nc(N4CCOCC4)c3c2C)c(OC)c1`, under setting [1], the AC50 is 3.66 µM [rising, partial curve, poor fit].
Regarding `COc1ccc(NC(=O)CSCc2ccccc2C)cc1`, the cell number change is -0.407%.
For `Cc1ccc(NC(=O)c2ccc(NC(=O)C3CCCCC3C(=O)O)cc2)cc1` (configuration not stated), the cell number change is -0.578%. In addition, the AC50 under setting [1] is 18.4 µM [rising, single point].
Take `CCc1ccc(-c2nnn(Cc3nc4ccccc4s3)n2)cc1`: the cell number change was -9.14%. For the same compound, the AC50 under setting [1] was 20.6 µM [rising, partial curve].
Consider `C1CCN(c2nc3nonc3nc2N2CCCCC2)CC1`, for which the cell number change is -4.33%. Also, the AC50 under setting [1] was 29.1 µM [rising, single point].
Turning to `CCOC(=O)c1cnc2c(ccc3ccccc32)c1N`, the cell number change was -1.76%. For the same compound, the AC50 under setting [1] is 7.31 µM [rising, partial curve, poor fit].
`N=c1n(CC(=O)c2ccc(Br)s2)c2ccccc2n1Cc1ccccc1`: the cell number change is -52.9%. Besides, the concentration at half-maximal activity (AC50) under setting [2] is 29.1 µM [falling, single point]. For the same compound, the AC50 under setting [1] was 29.1 µM [falling, single point].
Turning to `COc1ccc(CCN2CC(C(=O)N(C)CC(=O)Nc3ccc(Cl)c(C(F)(F)F)c3)CC2=O)cc1OC` (configuration not stated), the cell number change was -25%. Under setting [2], the AC50 is 0.13 µM [falling, full curve, poor fit].
Turning to `CC(C)Nc1nc(Oc2ccc(Cl)cc2Cl)cc(C(F)(F)F)n1`, the half-maximal activity concentration (AC50) under setting [1] was 0.146 µM [rising, full curve, poor fit].
On to `CCc1ccc(CNC(=O)c2ccc(NC(=O)C3=CSCCO3)cc2)cc1`, for which the cell number change is -33.7%. The AC50 under setting [1] was 29.1 µM [rising, single point].
For the compound `CCCn1cc(CN2CCC(n3nccc3NC(=O)c3ccccc3)CC2)c(C)n1`, the concentration at half-maximal activity (AC50) under setting [1] was 29.1 µM [rising, single point].
Turning to `Clc1cccc(NCc2cn3cccnc3n2)c1`, the AC50 under setting [1] is 0.0651 µM [falling, full curve, poor fit].
Take `CCOc1ccc(N(CC(=O)NC2CCCCCC2)S(=O)(=O)c2c(C)[nH]c(=O)[nH]c2=O)cc1`: the cell number change was -40%. Further, the half-maximal activity concentration (AC50) under setting [2] is 23.1 µM [falling, partial curve]. Further, the AC50 under setting [1] was 23.1 µM [falling, partial curve].
`CCOc1ncccc1C(=O)Nc1ccc(Cl)cc1`: the half-maximal activity concentration (AC50) under setting [1] is 0.146 µM [rising, full curve, poor fit].
With `CN1CCN(S(=O)(=O)c2ccccc2)CC1`, the cell number change came out at 3.17%. Also, the concentration at half-maximal activity (AC50) under setting [1] is 4.11 µM [falling, partial curve, poor fit].
`CC(C)(C)c1csc(NC(=O)CCc2ccccc2)n1`: the cell number change was -14.7%.
As to `COc1ccc(C#Cc2c(C=O)n(C)c3ccccc23)cc1`, the cell number change turned out to be 10.5%. Also, the AC50 under setting [1] is 0.00461 µM [falling, full curve, poor fit].
Turning to `O=C(Nc1ccc(F)c(F)c1)c1cc(S(=O)(=O)N2CCN(c3ccccn3)CC2)ccc1F`, the cell number change was 2.66%. Further, the AC50 under setting [1] was 5.8 µM [rising, single point].
As to `Oc1ccccc1C1=NCCNC(C(F)(F)C(F)F)=C1`, the cell number change was determined as 3.97%. Under setting [1], the AC50 was 2.06 µM [falling, partial curve].
Regarding `CCOc1cccc(C(=O)Nc2ccccc2C(=O)N2CCOCC2)c1`, the cell number change is -17%. Under setting [1], the AC50 is 29.1 µM [falling, single point].
Consider `Cc1ccc2nc(NC(=O)CCCc3nc4ccccc4s3)sc2c1`, for which the AC50 was 2.31 µM [rising, single point] under setting [2] and 3.66 µM [rising, partial curve] under setting [1].
Consider `CCOC(=O)C(NCc1ccco1)(NC(=O)c1ccccc1)C(F)(F)F` (configuration not stated), for which the cell number change was -36.1%. The AC50 under setting [2] was 2.06 µM [falling, full curve]. The AC50 under setting [1] is 2.59 µM [falling, full curve].
On to `CCn1c(COc2ccc(C(C)C)cc2)nnc1SCC(=O)Nc1nccs1`, for which the AC50 reads like this: under setting [2], 2.91 µM [rising, single point]; under setting [1], 6.51 µM [rising, single point].
As for `CC/C(C)=N/Nc1nc2c(c(=O)[nH]c(=O)n2C)n1CCc1ccccc1`, the cell number change came out at 14.6%.
In the case of `Oc1cc(O)c2c(c1)OC(c1ccc(O)c(O)c1)C(O)C2` (configuration not stated), the cell number change is 3.56%. Further, the AC50 under setting [1] is 1.84 µM [falling, partial curve, poor fit].
For `CC(C)Cc1nnc(NC(=O)CSc2nc(=O)cc(N)n2-c2ccccc2)s1`, the cell number change was 8.31%.
On to `CC(C)COc1cc(=O)[nH]c(SCC(C)C)n1`, for which the cell number change is -34.2%. In addition, the concentration at half-maximal activity (AC50) under setting [2] was 23.1 µM [falling, single point]. Moreover, under setting [1], the AC50 is 29.1 µM [falling, single point].
For `Cc1ccc(NCCNc2ccc(C)cc2)cc1`, the cell number change turned out to be 2.62%. Further, the AC50 under setting [1] is 6.51 µM [rising, single point].
Regarding `CC1OC2(C)OC(=N)C1(C#N)C(C#N)(C#N)C2c1ccccc1` (configuration not stated), the cell number change came to 35.3%. Also, under setting [2], the AC50 is 29.1 µM [rising, single point]. Also, under setting [1], the AC50 is 8.2 µM [rising, partial curve].
Take `COc1ccc(N2CCn3c2nc2c3c(=O)n(CCc3ccccc3)c(=O)n2C)cc1`: the AC50 is 0.58 µM [rising, full curve] under setting [2] and 1.46 µM [rising, full curve] under setting [1].
With `CCOc1cc(CNc2ccc(N3CCOCC3)cc2)cc(Br)c1OCC`, the cell number change amounted to 18.9%. Moreover, the concentration at half-maximal activity (AC50) under setting [1] is 0.184 µM [falling, full curve, poor fit].
On to `CCCn1c(SCC(=O)NCCc2ccc(OC)c(OC)c2)nc2c1c(=O)n(C)c(=O)n2C`, for which the cell number change is -0.419%.
On to `CCOC(=O)c1ccc(NC(=O)Nc2ccc(F)cc2)cc1`, for which the cell number change is -52.2%. For the same compound, the AC50 under setting [2] is 18.4 µM [falling, single point]. Moreover, under setting [1], the concentration at half-maximal activity (AC50) was 23.1 µM [falling, single point].
As for `CCNC(=S)N/N=C/c1cccs1`, the cell number change was determined as 65.1%. Under setting [2], the AC50 is 18.4 µM [rising, single point].
Consider `CC(=O)c1ccc(NC(=O)CCNS(=O)(=O)c2cccc3nonc23)cc1`, for which the half-maximal activity concentration (AC50) under setting [1] was 2.06 µM [falling, partial curve].
With `COc1cc([C@@H]2CC=C(C(=O)O)[C@H](c3ccc(F)cc3)N2S(=O)(=O)c2ccc(C)cc2)cc(OC)c1OC`, the AC50 under setting [1] was 2.31 µM [rising, full curve].
Turning to `COc1ccc(/C=C2\SC(=S)N(CCC(=O)NCCCn3ccnc3)C2=O)cc1`, the cell number change is -24.1%.
Take `Cc1cc(OC(=O)c2ccccc2Cl)ccc1N1C(=O)CCC1=O`: the cell number change was 12%.
As for `CCOc1ccccc1OCC(=O)O`, the cell number change is -21.4%. The AC50 under setting [1] was 1.64 µM [rising, partial curve, poor fit].
On to `O=C(COc1ccc(Cl)cc1Cl)NN=C1c2ccccc2-c2ccccc21`, for which the cell number change was -5.55%. Besides, the AC50 under setting [1] was 0.651 µM [falling, single point].
On to `Cc1cc(Cl)c2oc(C(=O)N(C)CCCCN3CCOCC3)c(C)c2c1`, for which the AC50 under setting [1] was 29.1 µM [falling, single point].
Regarding `O=C(c1ccsc1)N1CCCC(N2CCN(c3cccc(C(F)(F)F)c3)CC2)C1` (configuration not stated), the cell number change is -9.63%. Under setting [1], the AC50 is 0.58 µM [falling, single point].
As for `CCOc1cc(NC(=S)NCC2CCCO2)c(OCC)cc1NC(=O)c1ccc(OC)cc1` (configuration not stated), the cell number change is 8.45%. In addition, under setting [1], the half-maximal activity concentration (AC50) is 0.103 µM [rising, full curve, poor fit].
`COc1ccc(OC)c(NC(=O)CN2C(=O)NC3(CCCc4ccccc43)C2=O)c1` (configuration not stated): the cell number change is -22.1%.
With `Cc1ccc(C(=O)N/N=c2\oc3ccccc3cc2C(N)=O)cc1`, the cell number change was determined as 24.1%. The AC50 under setting [1] was 3.26 µM [falling, full curve, poor fit].
For `O=C(Nc1ncc(Cl)cn1)c1cccs1`, the cell number change is 19.7%. Also, the AC50 under setting [1] was 6.51 µM [falling, single point].
In the case of `C/C(=N\NC(=O)C1COc2ccccc2O1)c1cc2ccccc2o1` (configuration not stated), the cell number change was found to be 32%. Besides, the AC50 under setting [2] was 1.84 µM [rising, partial curve, poor fit].
As for `Cc1ccc(CN2CCN(CC(=O)N3CCc4ccccc4C3)C2=O)cc1`, the cell number change came to 34.3%. Also, the AC50 under setting [2] was 32.6 µM [rising, single point].
As to `COc1ccccc1CNC(=O)COC(=O)c1c[nH]c2ccccc12`, the cell number change was -13.1%. Also, the AC50 under setting [2] was 1.16 µM [falling, full curve, poor fit].
Consider `COc1ccc(C(=O)Nc2ccc(Cl)cc2F)cc1S(=O)(=O)N1CCCC1`, for which the cell number change is -5.93%. In addition, the AC50 under setting [1] was 6.51 µM [rising, single point].
With `COc1ccc(NC(=O)COC(=O)C2CC2)cc1S(=O)(=O)N1CCCCC1`, the cell number change was -8.28%. Under setting [1], the AC50 was 7.31 µM [falling, single point].
Regarding `Cc1cc(NC(=O)COC(=O)C2CCC(=O)N2)c([N+](=O)[O-])cc1C` (configuration not stated), the AC50 runs as follows: under setting [2], 6.51 µM [falling, single point]; under setting [1], 0.231 µM [rising, full curve, poor fit].
As to `CC(C)=C1C2CCC1C1C(=O)N(NC(=O)COc3ccc(C(C)(C)C)cc3)C(=O)C21` (configuration not stated), the cell number change was found to be 0.643%. In addition, the AC50 under setting [1] was 29.1 µM [rising, single point].
For `O=C1OC(Cc2ccccn2)C(=O)C1=C1SCCS1` (configuration not stated), the cell number change is -6.75%.
Take `CCCCCCC(=O)Nc1ccc(Cl)cn1`: the cell number change was -3.82%. Besides, the half-maximal activity concentration (AC50) under setting [1] was 6.51 µM [falling, single point].
With `COc1ccc(CN2CCN(C(=O)CN3C(=O)C4C5C=CC(C5)C4C3=O)CC2)c(OC)c1OC` (configuration not stated), the cell number change is -35.3%. Besides, the AC50 under setting [2] is 29.1 µM [falling, single point]. Under setting [1], the half-maximal activity concentration (AC50) was 14.6 µM [falling, partial curve, poor fit].
`O=C(CCC1CCCN(C(=O)c2ccc(F)c(F)c2)C1)N1CCN(c2ccccn2)CC1` (configuration not stated): the cell number change worked out at 5.57%.
Take `O=P(O)(O)CCP(=O)(c1ccccc1)c1ccccc1`: the cell number change is -5.2%. Further, under setting [1], the AC50 was 13 µM [falling, partial curve].
Regarding `Cc1noc(/C=C/NCc2cccnc2)c1S(=O)(=O)N(C)CC(=O)N1CCc2ccccc21`, the cell number change was found to be 12.5%. Under setting [1], the AC50 is 1.46 µM [rising, partial curve, poor fit].
